Source: the supplement of paper PMC4604168 (melanoma cell lines)
The list shows a part of the results. Many values rest on one well or one pass, so single values are uncertain.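 Imaging used 1,536-well plates; nuclei positive for cleaved PARP by antibody were divided by total DNA-stained nuclei to yield the apoptosis fraction. Doses for screening kept most cells viable, and cell lines differ markedly in resting and induced cleaved-PARP levels.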

tested on: G361; assay: cleaved PARP positive nuclei fraction relative to DMSO control; melanoma cells; higher = more apoptosis; details: library dose: low library concentration; 72 h

| Compound | cleaved PARP positive nuclei fraction [%] |
| --- | --- |
| C=CCn1c(=O)c2cnc(Nc3ccc(N4CCN(C)CC4)cc3)nc2n1-c1cccc(C(C)(C)O)n1 + O=S(=O)(c1ccccc1)N(CC(F)(F)F)c1ccc(C(O)(C(F)(F)F)C(F)(F)F)cc1 [T0901317] (first compound 0.02 µM, partner dose 1.4 µM) | 113 |
| O=C(Nc1cccc(Cl)c1)Nc1ncc(CCNc2ncnc3ccsc23)s1 + COc1cc(N2CCC(N3CCN(C)CC3)CC2)ccc1Nc1ncc(Cl)c(Nc2ccccc2S(=O)(=O)C(C)C)n1 [NVP-TAE684] (first compound 0.0008 µM, partner dose 0.08 µM) | 177 |
| C[C@]1(c2nc3c(C(N)=O)cccc3[nH]2)CCCN1 [Veliparib] + COc1cc2ncnc(Nc3ccc(Oc4ccccc4)cc3)c2cc1OC [SrcI1] (first compound 1.4 µM, partner dose 2 µM) | 43.8 |
| Cn1c(Nc2ccc(C(F)(F)F)cc2)nc2cc(Oc3ccnc(-c4ncc(C(F)(F)F)[nH]4)c3)ccc21 + COc1ccc(COc2ccc(Cc3cnc(N)nc3N)cc2OC)cc1 [GW2580] (first compound 0.08 µM, partner dose 1 µM) | 129 |
| COCC[n+]1c2c(n(Cc3cnccn3)c1C)C(=O)c1ccccc1C2=O + COc1ccc(COc2ccc(Cc3cnc(N)nc3N)cc2OC)cc1 [GW2580] (first compound 0.0004 µM, partner dose 1 µM) | 83 |
| Cc1ccc(NC(=O)c2cccc(N(C)C)c2)cc1NC(=O)c1ccc(O)cc1 + COC(=O)c1sccc1S(=O)(=O)Nc1ccc(Nc2ccccc2)cc1OC [GSK0660] (first compound 2 µM, partner dose 1 µM) | 107 |
